Two molecules from PMC10006225 can be followed below.

Sequences of proteins named here, by UniProt entry; tags and fusion partners are left off.
UniProt Q04206: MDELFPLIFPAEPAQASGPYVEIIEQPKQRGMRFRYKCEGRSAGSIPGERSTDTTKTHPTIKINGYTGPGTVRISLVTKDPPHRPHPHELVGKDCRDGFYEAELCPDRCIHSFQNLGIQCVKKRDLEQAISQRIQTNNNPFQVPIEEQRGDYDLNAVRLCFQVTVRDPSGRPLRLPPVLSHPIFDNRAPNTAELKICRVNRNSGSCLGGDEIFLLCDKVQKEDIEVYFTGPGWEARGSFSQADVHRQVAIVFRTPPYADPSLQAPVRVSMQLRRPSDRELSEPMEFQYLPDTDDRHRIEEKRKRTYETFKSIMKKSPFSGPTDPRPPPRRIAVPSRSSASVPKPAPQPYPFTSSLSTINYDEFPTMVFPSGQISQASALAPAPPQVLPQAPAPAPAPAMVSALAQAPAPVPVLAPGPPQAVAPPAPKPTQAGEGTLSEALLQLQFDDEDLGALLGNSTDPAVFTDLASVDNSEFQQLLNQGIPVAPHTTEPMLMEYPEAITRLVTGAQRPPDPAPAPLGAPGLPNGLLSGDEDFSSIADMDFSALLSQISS

One assay addresses T1, PTPN14 (UniProt Q15678).
T1 sequence: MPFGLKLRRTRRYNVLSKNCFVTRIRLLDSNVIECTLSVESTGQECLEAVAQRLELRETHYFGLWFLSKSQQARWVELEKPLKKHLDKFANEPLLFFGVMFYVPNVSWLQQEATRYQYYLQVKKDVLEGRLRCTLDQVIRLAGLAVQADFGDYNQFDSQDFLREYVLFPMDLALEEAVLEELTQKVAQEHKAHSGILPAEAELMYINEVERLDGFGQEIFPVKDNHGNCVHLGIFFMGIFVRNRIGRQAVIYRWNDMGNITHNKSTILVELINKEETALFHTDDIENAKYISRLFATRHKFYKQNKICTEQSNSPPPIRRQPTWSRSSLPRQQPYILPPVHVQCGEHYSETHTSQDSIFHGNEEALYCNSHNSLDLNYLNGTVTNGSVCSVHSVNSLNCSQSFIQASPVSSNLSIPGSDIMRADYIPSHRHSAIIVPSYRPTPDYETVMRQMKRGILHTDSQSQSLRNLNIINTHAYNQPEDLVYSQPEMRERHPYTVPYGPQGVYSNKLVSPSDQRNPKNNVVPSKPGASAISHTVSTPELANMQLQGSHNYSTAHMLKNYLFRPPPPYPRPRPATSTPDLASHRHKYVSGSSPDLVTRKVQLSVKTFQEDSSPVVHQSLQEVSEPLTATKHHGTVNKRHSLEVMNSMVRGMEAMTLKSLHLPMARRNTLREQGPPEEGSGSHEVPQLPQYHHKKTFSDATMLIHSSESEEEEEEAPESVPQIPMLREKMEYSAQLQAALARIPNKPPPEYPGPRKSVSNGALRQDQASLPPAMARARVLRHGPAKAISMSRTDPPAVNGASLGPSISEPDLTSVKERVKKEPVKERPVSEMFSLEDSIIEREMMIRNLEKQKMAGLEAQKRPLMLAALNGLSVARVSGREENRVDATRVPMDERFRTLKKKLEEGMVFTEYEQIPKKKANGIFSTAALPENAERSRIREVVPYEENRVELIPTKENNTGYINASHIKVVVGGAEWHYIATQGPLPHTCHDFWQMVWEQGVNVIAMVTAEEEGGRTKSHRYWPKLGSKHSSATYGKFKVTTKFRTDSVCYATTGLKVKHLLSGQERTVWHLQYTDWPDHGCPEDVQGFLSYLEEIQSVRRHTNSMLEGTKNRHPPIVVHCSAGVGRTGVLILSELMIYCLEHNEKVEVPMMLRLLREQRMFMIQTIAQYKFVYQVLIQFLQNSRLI
Nature of the assay: co-IP; immunoprecipitation with anti-PTPN14 antibody and Western blot for NFkB, and conversely with anti-NFkB antibody and blot for PTPN14; cells not named.

For assay [1], the target named is T2, PTPN14-ΔPTP (deletion the PTP domain, 934–1187 amino acids) (UniProt Q15678).
T2 sequence: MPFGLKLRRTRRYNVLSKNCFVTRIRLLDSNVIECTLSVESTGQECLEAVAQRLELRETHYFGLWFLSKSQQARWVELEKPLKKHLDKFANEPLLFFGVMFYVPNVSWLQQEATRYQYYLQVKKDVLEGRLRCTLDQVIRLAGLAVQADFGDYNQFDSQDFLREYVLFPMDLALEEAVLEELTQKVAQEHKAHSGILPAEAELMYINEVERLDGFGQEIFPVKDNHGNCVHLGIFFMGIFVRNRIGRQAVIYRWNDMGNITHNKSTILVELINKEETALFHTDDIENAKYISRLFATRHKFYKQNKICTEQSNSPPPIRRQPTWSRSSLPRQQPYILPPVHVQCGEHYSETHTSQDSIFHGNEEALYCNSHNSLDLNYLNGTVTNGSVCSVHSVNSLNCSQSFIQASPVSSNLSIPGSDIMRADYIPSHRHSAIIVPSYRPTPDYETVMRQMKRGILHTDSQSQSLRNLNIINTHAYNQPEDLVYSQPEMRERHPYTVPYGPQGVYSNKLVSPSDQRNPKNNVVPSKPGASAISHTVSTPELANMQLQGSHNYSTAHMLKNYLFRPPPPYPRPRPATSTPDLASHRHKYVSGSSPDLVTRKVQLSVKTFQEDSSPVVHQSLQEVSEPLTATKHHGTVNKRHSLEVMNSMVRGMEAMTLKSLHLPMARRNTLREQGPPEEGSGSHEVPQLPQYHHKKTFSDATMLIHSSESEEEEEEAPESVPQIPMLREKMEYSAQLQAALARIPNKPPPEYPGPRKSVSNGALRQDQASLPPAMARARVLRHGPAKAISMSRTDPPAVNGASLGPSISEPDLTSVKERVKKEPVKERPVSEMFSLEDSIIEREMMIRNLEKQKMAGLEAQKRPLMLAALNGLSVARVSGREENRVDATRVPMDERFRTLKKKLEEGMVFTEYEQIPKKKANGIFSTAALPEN
The assay is described as follows: co-IP; Co-IP with PTPN14 wild type, truncated or mutated plasmids, NFkB detected by Western blot; cells and precipitating antibody not named.

Assay [2] addresses T3, PTPN14 wild type (plasmid) (UniProt Q15678).
T3 sequence: T1 sequence
The assay is described as above.

For assay [3], the target named is NFkB (nuclear factor Kappa B), p65 subunit (UniProt Q04206). Nature of the assay: co-IP; immunoprecipitation with anti-PTPN14 antibody and Western blot for NFkB, and conversely with anti-NFkB antibody and blot for PTPN14; cells not named. (In western blotting, separated proteins are transferred to a membrane and probed.)

These are yes or no findings as the source states them, for the method shown. Binding seen in cells or lysates may run through a third protein. Some entries that bind do so weakly or less than the wild type.

“NFkB (nuclear factor Kappa B), p65 subunit (from UniProt Q04206 1-551)”: the binding result (with PTPN14; in assay [1]; in assay [2]) was “binds” each time.

B1: PTPN14 (protein, UniProt Q15678 1-1187)
chain: T1 sequence
B1: the binding result in assay [3] is given as “binds”.
